Reference: article PMC9928461
These are yes or no findings as the source states them, for the method shown. Binding seen in cells or lysates may run through a third protein. These calls come from enrichment with a bait or labelling near it, and not all partners need be listed.

Amino acid sequences for entries named in this document (tags omitted). A change or cut given only in a name is not applied to a line headed by its entry.
UniProt Q4VPP2: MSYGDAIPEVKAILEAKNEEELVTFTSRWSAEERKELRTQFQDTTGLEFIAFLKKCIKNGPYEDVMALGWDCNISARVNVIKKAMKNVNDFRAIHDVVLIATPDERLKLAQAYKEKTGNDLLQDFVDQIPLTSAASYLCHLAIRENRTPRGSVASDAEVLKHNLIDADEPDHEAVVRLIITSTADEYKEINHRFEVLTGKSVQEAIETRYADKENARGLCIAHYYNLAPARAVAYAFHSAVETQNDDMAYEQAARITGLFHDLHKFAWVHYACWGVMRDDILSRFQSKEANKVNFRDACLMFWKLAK
UniProt A8BK79: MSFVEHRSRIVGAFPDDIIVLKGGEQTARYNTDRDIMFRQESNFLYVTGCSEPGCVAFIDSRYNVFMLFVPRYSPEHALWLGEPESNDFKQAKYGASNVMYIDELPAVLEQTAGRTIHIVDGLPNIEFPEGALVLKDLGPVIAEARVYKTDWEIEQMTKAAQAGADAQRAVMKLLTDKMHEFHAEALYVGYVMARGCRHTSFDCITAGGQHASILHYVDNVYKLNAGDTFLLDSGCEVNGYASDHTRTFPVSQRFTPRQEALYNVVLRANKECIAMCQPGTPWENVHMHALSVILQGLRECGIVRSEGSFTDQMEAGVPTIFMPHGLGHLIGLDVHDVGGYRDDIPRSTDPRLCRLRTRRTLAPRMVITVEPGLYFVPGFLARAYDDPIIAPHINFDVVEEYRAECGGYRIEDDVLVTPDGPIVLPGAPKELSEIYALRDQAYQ
UniProt E2RTS6: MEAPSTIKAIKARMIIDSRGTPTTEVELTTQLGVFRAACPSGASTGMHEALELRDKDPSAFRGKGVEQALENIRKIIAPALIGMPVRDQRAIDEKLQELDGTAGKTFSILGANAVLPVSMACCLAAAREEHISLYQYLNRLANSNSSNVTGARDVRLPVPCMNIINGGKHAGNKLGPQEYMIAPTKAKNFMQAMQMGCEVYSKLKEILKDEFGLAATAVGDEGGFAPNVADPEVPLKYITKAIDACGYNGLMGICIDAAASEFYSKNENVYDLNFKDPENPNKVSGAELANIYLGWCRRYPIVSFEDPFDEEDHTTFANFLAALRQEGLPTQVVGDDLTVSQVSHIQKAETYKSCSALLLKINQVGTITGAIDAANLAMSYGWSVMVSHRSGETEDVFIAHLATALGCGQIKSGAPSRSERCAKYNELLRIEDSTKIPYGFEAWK

Legend:
Test in all cases: affinity purification with mass spectrometry; co-IP in limited cross-linking conditions: cells fixed in 2.25% formaldehyde in PBS 30 min, RIPA-SDS/RIPA-Triton extract, HA-tagged bait captured on anti-HA agarose beads overnight at 4°C, LC-MS; hits ranked by average relative iBAQ over at least two biological replicates
[1] = molecular target: GL50803_17153 alpha 11-giardin (Giardia lamblia WBA C6 (ATCC 50803)) (UniProt Q4VPP2)
[2] = molecular target: GL50803_17327 Xaa-Pro dipeptidase (Giardia lamblia WBA C6 (ATCC 50803)) (UniProt A8BK79)
[3] = molecular target: GL50803_11118 Enolase (Giardia lamblia WBA C6 (ATCC 50803)) (UniProt E2RTS6)

Substance	binding [1]	binding [2]	binding [3]
GL50803_17327 Xaa-Pro dipeptidase (from UniProt A8BK79) (enzyme)	binds		
GL50803_17153 alpha 11-giardin (from UniProt Q4VPP2)		binds	binds
GL50803_11118 Enolase (from UniProt E2RTS6) (enzyme)	binds		
